Holding throughout (assay): co-IP; HEK293 cells co-transfected; lysis in 50 mM Tris-HCl pH 7.5, 150 mM NaCl, 1% Triton X-100; IP with anti-Flag M2 affinity gel or anti-HA agarose; five washes in 50 mM Tris-HCl pH 7.5, 150 mM NaCl, 1 mM EDTA, 1% Triton X-100; immunoblot with anti-GFP, anti-Flag M2, anti-HA
In experiment [1] the target is T1, HA-ODR-8 (C. elegans Ufm1-specific protease 2) (C. elegans) (UniProt Q94218).
T1 sequence: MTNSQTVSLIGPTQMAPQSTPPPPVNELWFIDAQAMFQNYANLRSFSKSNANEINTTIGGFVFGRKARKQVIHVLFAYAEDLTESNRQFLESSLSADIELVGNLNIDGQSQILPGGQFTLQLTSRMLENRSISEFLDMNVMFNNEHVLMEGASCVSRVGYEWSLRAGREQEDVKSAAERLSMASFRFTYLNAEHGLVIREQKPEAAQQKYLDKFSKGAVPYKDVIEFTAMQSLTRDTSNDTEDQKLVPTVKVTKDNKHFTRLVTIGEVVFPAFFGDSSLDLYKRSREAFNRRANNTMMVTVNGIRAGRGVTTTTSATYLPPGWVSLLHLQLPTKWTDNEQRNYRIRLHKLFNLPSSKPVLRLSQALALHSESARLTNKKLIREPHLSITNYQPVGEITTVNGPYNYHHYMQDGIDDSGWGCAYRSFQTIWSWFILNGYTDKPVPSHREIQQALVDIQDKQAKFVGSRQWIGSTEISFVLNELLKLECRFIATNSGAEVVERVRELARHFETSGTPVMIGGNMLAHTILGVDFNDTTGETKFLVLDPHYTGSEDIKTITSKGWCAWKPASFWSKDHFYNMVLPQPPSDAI

The chains behind the UniProt entries cited, without tags or fusion partners. Where a name states a change or a piece, a line headed by the entry shows the natural chain unless it says otherwise.
UniProt Q8I7F8: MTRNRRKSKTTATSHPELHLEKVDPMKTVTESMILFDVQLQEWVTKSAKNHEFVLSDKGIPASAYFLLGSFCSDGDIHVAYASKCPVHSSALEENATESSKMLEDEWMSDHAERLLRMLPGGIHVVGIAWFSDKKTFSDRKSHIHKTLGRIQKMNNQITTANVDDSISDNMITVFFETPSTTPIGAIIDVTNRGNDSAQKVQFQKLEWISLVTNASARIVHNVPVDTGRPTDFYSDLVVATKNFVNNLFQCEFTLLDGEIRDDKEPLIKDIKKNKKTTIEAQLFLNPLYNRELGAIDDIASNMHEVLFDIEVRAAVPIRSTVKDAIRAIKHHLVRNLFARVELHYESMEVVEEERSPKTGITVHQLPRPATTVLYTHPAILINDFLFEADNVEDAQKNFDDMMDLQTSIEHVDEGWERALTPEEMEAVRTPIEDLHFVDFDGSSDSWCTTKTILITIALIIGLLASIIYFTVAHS

The target of experiment [2] is ODR-4b-FLAG (C. elegans).
Experiment [3] has as its target ODR-4a-FLAG (C. elegans) (UniProt Q8I7F8).

No constants are given. Whether binding was seen depends on the method and setting. Binding seen in cells or lysates may run through a third protein. Binding can be weak; no strength is given. Where a sequence is shown, tags or fusion partners need not be part of it.

Turning to ODR-4a-FLAG (from UniProt Q8I7F8-2), the binding result in experiment [1] is “binds”.
On to ODR-4b-FLAG (C. elegans), for which the binding result in experiment [1] was “binds”.

B1: HA-ODR-8 (C. elegans Ufm1-specific protease 2) (enzyme, UniProt Q94218 1-589)
chain: T1 sequence
In the case of B1, the binding result in experiment [2] and in experiment [3] was “binds” each time.

The record behind these values is publication PMC3945108.
